Results are given in words; binding and its absence hold for the method and conditions named. Binding seen in cells or lysates may run through a third protein.
Tests used:
Rluc-BST2 [1] = target: Rluc-BST2 (UniProt Q10589); test: FRET or BRET; BRET in live HEK293T cells co-transfected with the Rluc donor and the EYFP acceptor fusion; 48 h after transfection, cells in PBS, coelenterazine h 5 uM; ratio 530 nm/475 nm corrected for donor only
Rluc-BST2 [2] = target: Rluc-BST2 (UniProt Q10589); test: FRET or BRET; BRET saturation curve: HEK293T cells co-transfected with a fixed amount of R-B plasmid and increasing amounts of the EYFP fusion plasmid
Rluc-BST2 [3] = target: Rluc-BST2 (UniProt Q10589); test: FRET or BRET; BRET competition curve: HEK293T cells with constant amounts of R-B and Vm-E and increasing amounts of an untagged competitor plasmid

Amino acid sequences for entries named in this document (tags omitted). Residues count along the entry.
UniProt Q10589, residues 1-161: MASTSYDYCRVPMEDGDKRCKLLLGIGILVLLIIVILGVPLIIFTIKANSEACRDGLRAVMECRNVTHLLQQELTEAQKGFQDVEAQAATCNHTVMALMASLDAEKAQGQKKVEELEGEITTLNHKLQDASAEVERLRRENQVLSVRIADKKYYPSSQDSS
UniProt Q9NNX6: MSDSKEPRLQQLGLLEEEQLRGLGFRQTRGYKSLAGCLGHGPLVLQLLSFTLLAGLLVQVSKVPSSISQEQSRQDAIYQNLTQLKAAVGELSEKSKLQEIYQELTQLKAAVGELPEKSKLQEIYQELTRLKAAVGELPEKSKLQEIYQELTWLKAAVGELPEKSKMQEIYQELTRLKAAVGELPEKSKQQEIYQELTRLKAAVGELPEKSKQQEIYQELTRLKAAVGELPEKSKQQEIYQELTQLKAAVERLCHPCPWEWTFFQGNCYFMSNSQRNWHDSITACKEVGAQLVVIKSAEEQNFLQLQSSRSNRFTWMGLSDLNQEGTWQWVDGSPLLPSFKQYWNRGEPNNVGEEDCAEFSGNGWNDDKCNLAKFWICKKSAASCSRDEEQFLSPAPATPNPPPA

E-CD209 (from UniProt Q9NNX6 1-404)
binding (Rluc-BST2 [1]): no binding
binding (Rluc-BST2 [2]): no binding

untagged protein CD209 (from UniProt Q9NNX6 1-404)
binding (Rluc-BST2 [3]): no binding
